# In all, about 33,000 sequences were measured (“E-score (-0.5 to 0.5)”: median about -0.016, highest 2% from about 0.3 on). Some of the results follow.
# Molecular target: T1, Yer184c (UniProt P39961)
# T1 sequence: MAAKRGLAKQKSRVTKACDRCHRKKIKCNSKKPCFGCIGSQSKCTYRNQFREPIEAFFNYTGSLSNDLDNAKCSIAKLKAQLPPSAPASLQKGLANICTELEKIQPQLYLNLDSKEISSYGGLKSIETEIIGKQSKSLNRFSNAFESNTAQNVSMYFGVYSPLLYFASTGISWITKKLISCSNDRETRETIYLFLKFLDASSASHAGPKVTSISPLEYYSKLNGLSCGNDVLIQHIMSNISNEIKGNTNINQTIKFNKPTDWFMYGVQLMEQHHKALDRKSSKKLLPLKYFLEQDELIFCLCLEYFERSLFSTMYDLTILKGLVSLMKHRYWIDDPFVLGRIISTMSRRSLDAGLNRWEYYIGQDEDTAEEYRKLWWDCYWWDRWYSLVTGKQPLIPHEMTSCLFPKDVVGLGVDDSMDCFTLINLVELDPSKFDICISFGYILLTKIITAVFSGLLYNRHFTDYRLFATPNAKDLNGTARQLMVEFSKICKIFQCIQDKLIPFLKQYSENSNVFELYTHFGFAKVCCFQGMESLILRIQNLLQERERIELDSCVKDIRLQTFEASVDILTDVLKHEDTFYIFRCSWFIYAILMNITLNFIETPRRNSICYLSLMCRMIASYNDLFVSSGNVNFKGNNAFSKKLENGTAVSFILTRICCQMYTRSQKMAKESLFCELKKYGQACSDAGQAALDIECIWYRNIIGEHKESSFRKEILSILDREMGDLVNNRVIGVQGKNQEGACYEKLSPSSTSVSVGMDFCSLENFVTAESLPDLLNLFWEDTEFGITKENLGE
# Experiment: PBM E-score (8-mer binding enrichment) (E-score (-0.5 to 0.5)); higher = stronger / more preferred TF binding
# Settings: protein concentration: 100 nM; construct: GST-full length
# Procedure, shortened: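 GST-tagged yeast TFs (full-length or DNA-binding domain) were made by PURExpress in vitro transcription/translation and applied at about 100-200 nM to universal all-10-mer Agilent arrays. The arrays were made double-stranded by primer extension, on fresh or once-stripped slides. Bound protein was detected with fluorescent anti-GST, and scans were normalised with masliner. Each ungapped eight-base word, pooled with its reverse complement, received an E-score (modified Wilcoxon-Mann-Whitney statistic) from the Universal PBM Analysis Suite.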
row,Sequence,PBM E-score
1,CAGTTTGA,0.0222
2,GCCGCTCC,-0.0803
3,ACACCTGT,-0.132
4,CGCTGCAA,0.0112
5,AAGGCGCT,-0.131
6,ATCGCGAC,0.00425
7,AGTTCGCA,0.0278
8,AACCGCAT,0.175
9,CCCAACGG,-0.0834
10,AGAGGACA,-0.0658
11,ATCTAACC,0.0612
12,CGAAGGCG,-0.0487
13,GTGTCATA,0.0166
14,AATTGGCT,0.0616
15,CGTTTAAC,-0.0473
16,ACTAAACT,0.0129
17,CGAGCTAG,0.113
18,ATGACAAA,0.0561
19,CCTGAGAG,-0.221
20,AAGCCACC,-0.342
21,ACCCGTTC,-0.0341
22,CCGAGCCC,0.116
23,CGCCGGTC,0.228
24,ATAGTTAA,-0.0448
25,GATTGTGA,0.144

row,Sequence,PBM E-score
1,GTTGAGCA,-0.116
2,GAAAGGAC,0.173
3,GACAGCTC,-0.206
4,TACTCTCA,-0.0149
5,CGAAGCGC,0.0913
6,GACAGGCC,-0.104
7,GCGGCAGA,0.0458
8,CGAAAGGC,0.0427
9,AGTTTGCC,0.0766
10,AAAATTGA,0.0736
11,CCCTACCA,-0.0555
12,CTACTGTA,-0.0357
13,TGGTCTAA,-0.11
14,GGGCTGGA,-0.0978
15,CGTTCAAG,0.111
16,ACAGTGGC,-0.16
17,GCAGAGGA,-0.0548
18,CAGTAACG,0.0386
19,TACCTCGA,0.0161
20,TCCCATAA,-0.0959
21,AACACAGT,-0.0644
22,CCACTTAA,0.0753
23,ATTTACCA,0.178
24,ACAGTTGC,-0.0277
25,CCGCTTCC,0.0709

row,Sequence,PBM E-score
1,AGGTGCTC,-0.384
2,AAGAGATC,-0.0883
3,CATCTACG,0.0913
4,AAACTCGC,0.0869
5,AGCCCCAC,-0.286
6,AGTGGAGC,-0.121
7,ATAAATCA,0.171
8,TATGCCAA,-0.139
9,CCGGTGAA,0.248
10,CGGAGCTA,0.0653
11,AGGTGGCA,-0.201
12,CTACGGAA,0.205
13,AACTTGAC,0.0553
14,CCCTGCAC,-0.199
15,GCATTAGA,0.0629
16,GCGCCGAC,0.206
17,GGATACCA,0.033
18,GATACCGA,0.0941
19,GAGAGTAC,-0.0468
20,AGGGAGTC,-0.235
21,AAGGTCGT,-0.306
22,AAAGCCTC,-0.139
23,CCATTGCA,-0.107
24,CCGTAGCC,-0.109
25,ACTTACTG,-0.0959

row,Sequence,PBM E-score
1,CAATTGAC,-0.0212
2,CTCGAACA,-0.00701
3,ACCGACCG,0.132
4,AGTTCTAC,-0.0807
5,CCACCGCC,-0.229
6,ATTTGGCA,0.0517
7,GAGACTCA,0.023
8,GCCTGTTA,-0.218
9,AGATGAAG,-0.19
10,GGCAACCA,0.087
11,ACTCATGG,-0.11
12,AGGGGCTG,-0.216
13,ATTTCTTC,0.315
14,CGGTAATC,0.108
15,CTATCCTA,-0.00403
16,ATGGTTAG,0.0958
17,CTCCACAC,-0.126
18,AGCATCCA,-0.134
19,GCAAATCC,0.203
20,CTGCAAAG,-0.0274
21,GGGGAGCA,-0.332
22,AACCGGAG,0.358
23,GCCGCCAC,-0.273
24,CTGCTTAA,0.0504
25,CCAGTTAG,-0.245

# Single entries from the results shown.
# Value of CAGTAACG under PBM E-score: 0.0386
# Value of TACTCTCA under PBM E-score: -0.0149
# Value of ATAGTTAA under PBM E-score: -0.0448
# Value of GACAGGCC under PBM E-score: -0.104
# Value of AGCCCCAC under PBM E-score: -0.286

# (list continues)

row,Sequence,PBM E-score
1,CTGCCCAG,-0.0831
2,CAGCTAAG,-0.136
3,CTGAAGTA,0.0194
4,ACAACGTG,-0.174
5,GGCTAGAC,-0.126
6,CGGCAACG,0.247
7,AAGCTTGT,0.0388
8,GCCGTCAA,-0.0832
9,CCTGATCC,-0.105
10,CGAGCTTA,0.0634
11,AAGGTTTG,0.066
12,AGCGACAA,-0.146
13,CTTCTGCC,-0.0395
14,GTTTGGCA,0.0335
15,TATGGCAA,-0.0375
16,CTGGAGCA,-0.301
17,GACGGCTC,-0.119
18,CCTATCTC,-0.0616
19,AAATACCC,0.127
20,ATGCCTGC,-0.177
21,CTACGTAA,-0.0499
22,ATGGAGGC,-0.209
23,CATACAGA,0.108
24,AAGTTCGA,0.185
25,CTGTACGC,-0.0756

row,Sequence,PBM E-score
1,GCCGAAAA,0.439
2,AGTCAACT,-0.179
3,CTAGTGCA,0.0792
4,ACAAATTC,0.0749
5,CAATCGGC,0.217
6,CCAAGCTC,0.00361
7,CACAATAA,0.00019
8,CAGTATTC,0.13
9,GCCAAACA,-0.00926
10,TGTGCCAA,0.0933
11,CCTGACAG,-0.0423
12,GCCGCACC,0.0459
13,GCTCGGCC,0.207
14,GCAAAGCA,-0.0276
15,CTATCGAC,-0.269
16,ACAGTACT,-0.0797
17,CTCCCGTC,0.131
18,AGGGCTCA,-0.199
19,AATCGGGA,0.0709
20,CATTTTAG,0.239
21,CGCTCCAC,-0.101
22,ACAGCCTC,-0.212
23,TCTTTACA,0.122
24,TAGAGCAA,-0.18
25,ATTCGAAG,-0.0322

row,Sequence,PBM E-score
1,ATGGCATG,0.104
2,AGCTAAAA,0.168
3,GGTCGAAA,-0.168
4,GACCCTAC,-0.12
5,AAGGCTGT,-0.102
6,AGGGCCTC,-0.254
7,CGCGGTAA,0.287
8,GGTACTCA,-0.086
9,ATAGCGAT,-0.163
10,CCCTTCAC,-0.184
11,GGTTCGTA,0.076
12,CTGCCGTA,-0.00407
13,GCACCATA,-0.142
14,CTTTTGTC,0.0547
15,TATCACAA,0.0158
16,CGTGTCCA,-0.144
17,ATGTCGTA,-0.107
18,AGAACCTG,-0.146
19,GATTAAAC,0.219
20,TAACGATA,0.138
21,AGGGCGGA,-0.0938
22,ACCAAGTG,-0.2
